# Assay results as given in the supplement of paper PMC8728848.
# This is one part of the list.
# B1: truncCC1G-10077 (Coprinopsis cinerea) (protein)
# chain: MHHHHHHHHPLPSPGPGWVLIQNGGTGKFLCSTPSGDIGTADGPETVYDYSVQWRFIQREYTGVYHVVNRATGAYLRQIGTSMPSIGLAEENDDELKDWWMLETYDNSEIGLASIISRWTGNVLDHYGGVSVQALDNNTENSYRSWAIIPARDWLTSFSLVNGQGGLCLAAQYAREETRLSTTANVNDFHAQWVFRKPSGSSGYTIQNKYNNHYVGGTSARWELVVCCNKYFGIRNTSTQKYLAIEDGQVTFQDQDMTDRKQCWELCSGRATDTSGNDYDLIYMDDDLLEVMIPWVGDKQGDLKHYIEKRATKKPPKDKGGWQLPAAGLIKKPKFNDIRQLLQELIEQWEWDVVNEEREQIQTLVSIDEAEARRLLGRRPHPDIVAAYQRSRSSTLFRIDRQGYFNIAGDRYVNIQGQYGDDSYFHIALPVGVRFGREQIRRFLRDSLDRSTSVTITPTTCKPPSGGPDYNRDPDSDGDNSWIKWTIAVVGTSAIKHSEL
# Tests used:
# Assay in all cases: glycan array binding signal (z-score within array); higher = stronger binding
# Conditions in all cases: glycan notation: IUPAC condensed, linker removed
# [1] = target: Gal(a1-3)[Gal(a1-4)]Gal(b1-4)GlcNAc
# Summary of the method: (§1)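 The binding signal is a Z-score computed within each array and averaged over linkers. Arrays of the same protein sequence at different concentrations or buffers were also averaged together. Data originate from 3228 arrays in the Consortium for Functional Glycomics database, kept only where the protein sequence was available.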
# [2] = target: Gal(a1-4)Gal(b1-3)GlcNAc(b1-2)Man(a1-3)[Gal(a1-4)Gal(b1-3)GlcNAc(b1-2)Man(a1-6)]Man(b1-4)GlcNAc(b1-4)GlcNAc
# Summary of the method: as §1
# Gal(a1-4)Gal(b1-4)Glc = target: Gal(a1-4)Gal(b1-4)Glc
# Summary of the method: as §1
# Gal(a1-4)Gal(b1-4)GlcNAc = target: Gal(a1-4)Gal(b1-4)GlcNAc
# Summary of the method: as §1
# [3] = target: Gal(a1-4)Gal(b1-4)GlcNAc(b1-2)Man(a1-3)[Gal(a1-4)Gal(b1-4)GlcNAc(b1-2)Man(a1-6)]Man(b1-4)GlcNAc(b1-4)GlcNAc
# Summary of the method: as §1
# [4] = target: Gal(a1-4)Gal(b1-4)GlcNAc(b1-3)Gal(b1-4)Glc
# Summary of the method: as §1
# Gal(a1-4)GlcNAc = target: Gal(a1-4)GlcNAc
# Summary of the method: as §1
# Gal(a1-6)Glc = target: Gal(a1-6)Glc
# Summary of the method: as §1
# Gal(b1-2)Gal = target: Gal(b1-2)Gal
# Summary of the method: as §1
# Gal(b1-3)Gal = target: Gal(b1-3)Gal
# Summary of the method: as §1
# Gal(b1-3)Gal(b1-4)GlcNAc = target: Gal(b1-3)Gal(b1-4)GlcNAc
# Summary of the method: as §1
# Gal(b1-3)GalNAc = target: Gal(b1-3)GalNAc
# Summary of the method: as §1
# [5] = target: Gal(b1-3)GalNAc(a1-3)[Fuc(a1-2)]Gal(b1-4)Glc
# Summary of the method: as §1
# [6] = target: Gal(b1-3)GalNAc(a1-3)[Fuc(a1-2)]Gal(b1-4)GlcNAc
# Summary of the method: as §1
# Gal(b1-3)GalNAc(b1-3)Gal = target: Gal(b1-3)GalNAc(b1-3)Gal
# Summary of the method: as §1
# [7] = target: Gal(b1-3)GalNAc(b1-3)Gal(a1-4)Gal(b1-4)Glc
# Summary of the method: as §1
# [8] = target: Gal(b1-3)GalNAc(b1-4)Gal(b1-4)Glc
# Summary of the method: as §1
# [9] = target: Gal(b1-3)GalNAc(b1-4)[Neu5Ac(a2-3)]Gal(b1-4)Glc
# Summary of the method: as §1
# Gal(b1-3)GlcNAc = target: Gal(b1-3)GlcNAc
# Summary of the method: as §1
# [10] = target: Gal(b1-3)GlcNAc(a1-3)Gal(b1-4)GlcNAc
# Summary of the method: as §1
# [11] = target: Gal(b1-3)GlcNAc(a1-6)Gal(b1-4)GlcNAc
# Summary of the method: as §1
# Gal(b1-3)GlcNAc(b1-2)Man = target: Gal(b1-3)GlcNAc(b1-2)Man
# Summary of the method: as §1
# [12] = target: Gal(b1-3)GlcNAc(b1-2)Man(a1-3)[Gal(b1-3)GlcNAc(b1-2)Man(a1-6)]Man(b1-4)GlcNAc(b1-4)GlcNAc
# Summary of the method: as §1
# [13] = target: Gal(b1-3)GlcNAc(b1-2)Man(a1-3)[Gal(b1-3)GlcNAc(b1-2)Man(a1-6)]Man(b1-4)GlcNAc(b1-4)[Fuc(a1-6)]GlcNAc
# Summary of the method: as §1
# [14] = target: Gal(b1-3)GlcNAc(b1-2)Man(a1-3)[GlcNAc(b1-4)][Gal(b1-3)GlcNAc(b1-2)Man(a1-6)]Man(b1-4)GlcNAc(b1-4)GlcNAc
# Summary of the method: as §1
# [15] = target: Gal(b1-3)GlcNAc(b1-2)[Gal(b1-3)GlcNAc(b1-6)]Man(a1-6)[Gal(b1-3)GlcNAc(b1-2)Man(a1-3)]Man(b1-4)GlcNAc(b1-4)GlcNAc
# Summary of the method: as §1
# [16] = target: Gal(b1-3)GlcNAc(b1-3)Gal(b1-3)GlcNAc
# Summary of the method: as §1
# [17] = target: Gal(b1-3)GlcNAc(b1-3)Gal(b1-4)Glc
# Summary of the method: as §1
# [18] = target: Gal(b1-3)GlcNAc(b1-3)Gal(b1-4)GlcNAc
# Summary of the method: as §1
# [19] = target: Gal(b1-3)GlcNAc(b1-3)Gal(b1-4)GlcNAc(b1-2)Man(a1-3)[Gal(b1-3)GlcNAc(b1-3)Gal(b1-4)GlcNAc(b1-2)Man(a1-6)]Man(b1-4)GlcNAc(b1-4)GlcNAc
# Summary of the method: as §1
# [20] = target: Gal(b1-3)GlcNAc(b1-3)Gal(b1-4)GlcNAc(b1-2)[Gal(b1-3)GlcNAc(b1-3)Gal(b1-4)GlcNAc(b1-6)]Man(a1-6)[Gal(b1-3)GlcNAc(b1-3)Gal(b1-4)GlcNAc(b1-2)Man(a1-3)]Man(b1-4)GlcNAc(b1-4)[Fuc(a1-6)]GlcNAc
# Summary of the method: as §1
# [21] = target: Gal(b1-3)GlcNAc(b1-3)Gal(b1-4)GlcNAc(b1-3)Gal(b1-4)GlcNAc(b1-2)[Gal(b1-3)GlcNAc(b1-3)Gal(b1-4)GlcNAc(b1-3)Gal(b1-4)GlcNAc(b1-6)]Man(a1-6)[Gal(b1-3)GlcNAc(b1-3)Gal(b1-4)GlcNAc(b1-3)Gal(b1-4)GlcNAc(b1-2)Man(a1-3)]Man(b1-4)GlcNAc(b1-4)[Fuc(a1-6)]GlcNAc
# Summary of the method: as §1
# [22] = target: Gal(b1-3)GlcNAc(b1-3)Gal(b1-4)GlcNAc(b1-6)[Gal(b1-3)GlcNAc(b1-3)]Gal(b1-4)Glc
# Summary of the method: as §1
# [23] = target: Gal(b1-3)GlcNAc(b1-3)Gal(b1-4)[Fuc(a1-3)]GlcNAc
# Summary of the method: as §1
# [24] = target: Gal(b1-3)GlcNAc(b1-3)Gal(b1-4)[Fuc(a1-3)]GlcNAc(b1-6)[Gal(b1-3)GlcNAc(b1-3)]Gal(b1-4)Glc
# Summary of the method: as §1
# [25] = target: Gal(b1-3)GlcNAc(b1-3)GalNAc
# Summary of the method: as §1
# [26] = target: Gal(b1-3)GlcNAc(b1-6)Gal(b1-4)GlcNAc
# Summary of the method: as §1
# [27] = target: Gal(b1-3)GlcNAc(b1-6)GalNAc
# Summary of the method: as §1
binder,measurement,setting,value
B1,glycan array binding signal (z-score),[1],2.08
same,glycan array binding signal (z-score),[2],1.86
same,glycan array binding signal (z-score),Gal(a1-4)Gal(b1-4)Glc,0.224
same,glycan array binding signal (z-score),Gal(a1-4)Gal(b1-4)GlcNAc,-0.463
same,glycan array binding signal (z-score),[3],0.716
same,glycan array binding signal (z-score),[4],-0.848
same,glycan array binding signal (z-score),Gal(a1-4)GlcNAc,-0.869
same,glycan array binding signal (z-score),Gal(a1-6)Glc,-0.488
same,glycan array binding signal (z-score),Gal(b1-2)Gal,-0.713
same,glycan array binding signal (z-score),Gal(b1-3)Gal,0.191
same,glycan array binding signal (z-score),Gal(b1-3)Gal(b1-4)GlcNAc,-0.766
same,glycan array binding signal (z-score),Gal(b1-3)GalNAc,-0.815
same,glycan array binding signal (z-score),[5],-0.935
same,glycan array binding signal (z-score),[6],-1.05
same,glycan array binding signal (z-score),Gal(b1-3)GalNAc(b1-3)Gal,0.405
same,glycan array binding signal (z-score),[7],0.462
same,glycan array binding signal (z-score),[8],-0.857
same,glycan array binding signal (z-score),[9],-0.719
same,glycan array binding signal (z-score),Gal(b1-3)GlcNAc,-0.268
same,glycan array binding signal (z-score),[10],-1.53
same,glycan array binding signal (z-score),[11],-0.679
same,glycan array binding signal (z-score),Gal(b1-3)GlcNAc(b1-2)Man,-0.446
same,glycan array binding signal (z-score),[12],0.572
same,glycan array binding signal (z-score),[13],0.426
same,glycan array binding signal (z-score),[14],2.75
same,glycan array binding signal (z-score),[15],0.467
same,glycan array binding signal (z-score),[16],-0.851
same,glycan array binding signal (z-score),[17],-0.72
same,glycan array binding signal (z-score),[18],-0.687
same,glycan array binding signal (z-score),[19],-0.039
same,glycan array binding signal (z-score),[20],1.4
same,glycan array binding signal (z-score),[21],1.12
same,glycan array binding signal (z-score),[22],-0.779
same,glycan array binding signal (z-score),[23],0.433
same,glycan array binding signal (z-score),[24],-1.01
same,glycan array binding signal (z-score),[25],-0.146
same,glycan array binding signal (z-score),[26],-1.21
same,glycan array binding signal (z-score),[27],-1.04

# Rewritten as tab-separated lines: part of the list above.
binder	measurement	setting	value
B1	glycan array binding signal (z-score)	[5]	-0.935
same	glycan array binding signal (z-score)	[6]	-1.05
